Source: patent US6469013B2, “Therapeutic compounds” (Parker Hughes Institute, priority 1998, dated 2002)
pIC50: −log10 of the molar value.

Biological target: T1, human JAK3 (Homo sapiens, UniProt P52333)
T1 sequence (P52333 1-1124): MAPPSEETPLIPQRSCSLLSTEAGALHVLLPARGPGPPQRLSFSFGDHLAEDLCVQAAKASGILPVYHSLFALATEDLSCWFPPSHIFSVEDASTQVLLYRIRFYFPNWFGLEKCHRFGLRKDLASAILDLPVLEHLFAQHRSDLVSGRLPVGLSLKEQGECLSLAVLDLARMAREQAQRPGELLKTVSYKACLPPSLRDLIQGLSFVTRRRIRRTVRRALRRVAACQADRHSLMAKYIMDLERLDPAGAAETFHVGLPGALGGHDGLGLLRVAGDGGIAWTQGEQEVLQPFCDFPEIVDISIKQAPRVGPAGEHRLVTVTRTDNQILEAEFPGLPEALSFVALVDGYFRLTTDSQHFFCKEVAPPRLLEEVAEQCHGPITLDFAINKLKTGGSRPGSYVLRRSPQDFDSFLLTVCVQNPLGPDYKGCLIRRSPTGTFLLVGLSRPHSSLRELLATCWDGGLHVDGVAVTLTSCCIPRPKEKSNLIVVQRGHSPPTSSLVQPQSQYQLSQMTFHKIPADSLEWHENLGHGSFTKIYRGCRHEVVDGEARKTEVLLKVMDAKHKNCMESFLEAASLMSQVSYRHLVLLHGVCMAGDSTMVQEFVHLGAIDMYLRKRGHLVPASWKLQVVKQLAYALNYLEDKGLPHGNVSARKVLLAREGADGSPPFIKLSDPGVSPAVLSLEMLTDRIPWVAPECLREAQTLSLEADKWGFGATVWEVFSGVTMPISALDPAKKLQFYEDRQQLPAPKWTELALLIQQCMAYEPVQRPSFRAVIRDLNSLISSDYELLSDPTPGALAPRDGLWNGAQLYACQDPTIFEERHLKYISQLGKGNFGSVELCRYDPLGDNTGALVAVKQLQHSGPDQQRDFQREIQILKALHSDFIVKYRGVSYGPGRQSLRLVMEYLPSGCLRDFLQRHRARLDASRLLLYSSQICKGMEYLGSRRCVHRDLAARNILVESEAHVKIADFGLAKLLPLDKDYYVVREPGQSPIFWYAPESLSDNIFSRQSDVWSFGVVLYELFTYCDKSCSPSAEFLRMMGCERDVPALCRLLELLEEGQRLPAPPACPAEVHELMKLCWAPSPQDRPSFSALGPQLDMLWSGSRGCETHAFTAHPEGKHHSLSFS
Experiment: JAK3 immune complex kinase assay (JAK3 immunoprecipitated from KL2 EBV-transformed B cell line)
Format: biochemical
Conditions: KL2 cell-derived human JAK3
Description: In JAK3 immune complex kinase assays (17, 22), KL-2 EBV-transformed human lymphoblastoid B cells (native JAK3 kinase assays) or insect ovary cells (recombinant JAK3 kinase assays) were lysed with NP-40 lysis buffer (50 mM Tris, pH 8, 150 mM NaCl, 5 mM EDTA, 1% NP-40, 100 μM sodium orthovanadate, 100 μM sodium molybdate, 8 μg/ml aprotinin, 5 μg/ml leupeptin, and 500 μM PMSF) and centrifuged 10 min at 13000× g to remove insoluble material. Samples were immunoprecipitated with antisera prepared against JAK3. The antisera were diluted and immune complexes collected by incubation with 15 μl protein A Sepharose. After 4 washes with NP-40 lysis buffer, the protein A Sepharose beads were washed once in kinase buffer (20 mM MOPS, pH7, 10 mM MgCl2) and resuspended in the same buffer. Reactions were initiated by the addition of 25 μCi [γ^32P] ATP (5000 Ci/mMole) and unlabeled ATP to a final concentration of 5 μM. Reactions were terminated by boiling for 4 min in SDS sample buffer. Samples were run on 9.5% SDS polyacrylamide gels and labeled proteins were detected by autoradiography. […] For each drug concentration, a kinase activity index (KA) was determined by comparing the kinase activity in phosphorimager units (PIU) to that of the baseline sample. […]

COc1cc2ncnc(Nc3ccc(O)c(Br)c3)c2cc1OC [WHI-P154, 4-(3′bromo4′-hydroxyl-phenyl)-amino-6,7-dimethoxyquinazoline]
pIC50: 4.55
